Consider one molecule from paper doi:10.1101/2021.09.21.461216 (bioRxiv, 2021).

No constants are given. Whether binding was seen depends on the method and setting.

In this assay the target is LexA DNA binding domain Ras with the cysteine of the CAAX box mutated (UniProt P01112). In words: two-hybrid.

B1: BRI3BP domain identified in the two-hybrid assay, overexpressed in mammalian cells (domain or fragment, UniProt Q8BXV2 85-253, looked up)
chain: RFVQGVDMFLETLWKVWMELLEVLGLDVSNLSQYFSPASVSNSPTRALVLVGVVLLAYWFLSLTLGFTFSLLHLVFGRFFWLVRVILFSMSCVYILHKYEGEPEHAVLPLCVVVAIYFMTGPMGYWRGSPGGLCSPSVEEKLEHLENQVRLLNIRLNRVLENLDRSKDK
Consider B1, for which the binding result is “no binding”.
